From paper PMC7104860 come the findings set out here.

Results are given in words; binding and its absence hold for the method and conditions named. In cells and extracts the contact can be indirect. Some entries that bind do so weakly or less than the wild type. For part of these data: Where a sequence is shown, tags or fusion partners need not be part of it.

Assay [1] has as its target T1, HA-tagged Lamin C (HA-LamC) (Drosophila) (UniProt Q03427).
T1 sequence: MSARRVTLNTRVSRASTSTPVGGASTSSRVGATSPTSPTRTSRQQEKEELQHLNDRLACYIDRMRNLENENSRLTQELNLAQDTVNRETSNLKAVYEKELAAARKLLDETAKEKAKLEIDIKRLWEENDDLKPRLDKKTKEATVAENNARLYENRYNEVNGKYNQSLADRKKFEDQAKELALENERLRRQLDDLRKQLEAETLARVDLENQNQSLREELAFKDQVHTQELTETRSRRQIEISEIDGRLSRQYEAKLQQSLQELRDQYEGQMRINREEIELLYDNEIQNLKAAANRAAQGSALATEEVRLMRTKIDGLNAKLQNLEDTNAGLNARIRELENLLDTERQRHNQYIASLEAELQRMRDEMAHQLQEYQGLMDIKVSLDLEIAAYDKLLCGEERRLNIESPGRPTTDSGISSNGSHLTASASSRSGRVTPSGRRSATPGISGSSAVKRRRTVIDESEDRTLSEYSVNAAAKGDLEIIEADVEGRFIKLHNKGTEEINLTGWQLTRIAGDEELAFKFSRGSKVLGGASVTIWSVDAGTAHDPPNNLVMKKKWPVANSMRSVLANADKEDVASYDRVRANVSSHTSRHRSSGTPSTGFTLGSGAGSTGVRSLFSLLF
In words: co-IP; lysates of S2 cells expressing HA-tagged wild-type or chimeric lamins, anti-HA magnetic beads, immunoblot with anti-PIG-B (endogenous PIG-B) and anti-HA. A general note: Immunoblotting shows a protein as a band on a membrane.

The target of assay [2] is T2, HA-tagged Lamin Dm0 (HA-LamDm) (Drosophila) (UniProt P08928).
T2 sequence: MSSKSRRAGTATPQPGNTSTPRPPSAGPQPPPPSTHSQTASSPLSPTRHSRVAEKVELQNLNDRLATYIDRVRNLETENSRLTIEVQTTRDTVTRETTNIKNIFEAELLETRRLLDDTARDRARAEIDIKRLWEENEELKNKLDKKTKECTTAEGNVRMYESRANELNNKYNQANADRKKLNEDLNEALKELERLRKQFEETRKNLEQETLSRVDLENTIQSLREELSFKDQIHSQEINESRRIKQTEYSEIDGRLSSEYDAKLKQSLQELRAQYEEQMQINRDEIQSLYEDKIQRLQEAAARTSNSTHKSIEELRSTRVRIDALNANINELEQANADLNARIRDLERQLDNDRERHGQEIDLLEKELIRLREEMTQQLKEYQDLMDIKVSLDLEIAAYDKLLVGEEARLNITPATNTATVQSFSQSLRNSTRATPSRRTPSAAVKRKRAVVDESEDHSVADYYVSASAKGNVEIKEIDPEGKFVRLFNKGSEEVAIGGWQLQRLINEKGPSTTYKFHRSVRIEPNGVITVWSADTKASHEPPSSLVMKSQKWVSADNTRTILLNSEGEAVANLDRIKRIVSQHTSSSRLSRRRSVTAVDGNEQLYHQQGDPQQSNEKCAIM
The description is as above.

The target in assay [3] is T3, Lamin Dm0 (D. melanogaster (endogenous in S2)) (UniProt P08928).
T3 sequence: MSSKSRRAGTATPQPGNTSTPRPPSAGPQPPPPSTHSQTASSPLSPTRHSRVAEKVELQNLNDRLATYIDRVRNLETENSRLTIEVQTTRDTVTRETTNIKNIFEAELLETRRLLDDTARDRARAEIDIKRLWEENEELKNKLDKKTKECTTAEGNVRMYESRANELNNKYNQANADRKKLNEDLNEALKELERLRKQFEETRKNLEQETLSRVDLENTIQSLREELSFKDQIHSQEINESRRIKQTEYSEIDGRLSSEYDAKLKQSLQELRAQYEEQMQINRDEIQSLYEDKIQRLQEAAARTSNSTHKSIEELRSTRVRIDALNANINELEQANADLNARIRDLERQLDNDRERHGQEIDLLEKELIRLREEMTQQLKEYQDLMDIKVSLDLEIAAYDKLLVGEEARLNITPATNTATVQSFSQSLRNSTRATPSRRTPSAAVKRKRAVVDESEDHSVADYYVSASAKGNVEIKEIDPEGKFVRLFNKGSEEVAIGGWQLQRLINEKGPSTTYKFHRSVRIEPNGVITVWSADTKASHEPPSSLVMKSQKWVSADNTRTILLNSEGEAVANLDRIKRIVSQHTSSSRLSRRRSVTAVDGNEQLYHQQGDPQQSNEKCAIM
Nature of the assay: co-IP; endogenous proteins in S2 cell lysates (50 mM Tris-HCl pH 8.0, 150 mM NaCl, 1% Triton X-100), anti-PIG-B or anti-Lamin Dm0 (ADL67.10) antibody and Protein G Sepharose; normal mouse IgG as control.

B1: PIG-B (endogenous) (enzyme, UniProt Q9VZM5 1-561)
chain: MKLIYVFLLILAVRLASVFVVQTYYVPDEYWQSLEVAHKLTFGYGYLTWEWVQGIRSYVYPLLIAGLYKILALLQLDSAHLLVVLPRIVQALLSAYSDYRFFVWTGKRKWALFLILVPWFWFYTGSRTLANTLEASLTTIALSYFPWYGESTAYLWPAAICCFLRPTAAVIWLPLSLYHLRRSRQNVLELILKRFVLIGLLVAGLGIAIDTYWHGQLIVTPYEFLKYNIFNNIGSFYGSHPWHWYFSVGLPTVLGINTLPFIFGVMETVKKSEKYPVSKQLLITIFLTLVVLSAVEHKEFRFVSPLLPLCLYVITDALSRWSIRASSTMLWTTALVILVGNVMPAWYLSTVHQKGPIELMPKLREIAREYRDEREHQANILFLMPCHSTPYYSHIHQNVTMRFLTCEPNLEKKEQYKDEADRFFEDPVHWINSHIPMHPLTALPTHVVLFDPLAENISVFLRNYRLLHRIEHAEVTRLEGSQALVDQWSEALGAQSPNLASLLQNRQSRTGRSILVYQRLKKGEENAFNRGPDSGQHEPDVHDHPPLEDLVLANENENLFN
With B1, the binding result in assay [1] is listed as “no binding”; in assay [2], “binds”; in assay [3] it was “binds”.
